# Reference: US20120093810A1
# Substitutions are numbered along the chain they refer to. Names and notes keep the numbering of the source. Results are given in words; binding and its absence hold for the method and conditions named. Some results given as binding are weak or reduced against the parent protein; the word gives no strength.
# B1: EV2038 CDR-H3 variant V132K (antibody, V domains shown)
# VH: QVQLQQWGAGLLKPSETLSLTCAVYGGSFSGYYWGWIRQPPGKGLEWIGEINHSGSANSNPSLKSRVTMSVDTSKNQFSLKVSSVTAADTAVYFCARVTRDLEWIPGDYYMDKWGKGTTVTVSS
# VL: QSVLTQPPSASGTPGQRVSISCSGSLSNIGTNYVYWYQQLPGTAPKLLIFKNNQRPSGVPDRFSGSKSGTSASLAISGLRSEDEADYYCAAWDDSLNGYVFGTGTKVTVLG
# B2: EV2038 CDR-H3 variant I124V (antibody, V domains shown)
# VH: B1 VH with I105V, K113V
# VL: B1 VL
# Columns and labels:
# [1] = target: GST-fused HCMV-AD1 (AD1 region of HCMV glycoprotein gB) (human cytomegalovirus, AD169 strain) (UniProt F5HB53); experiment: ELISA on solid-phased AD1, CHO supernatant antibody
# [2] = target: GST-fused HCMV-AD1 (AD1 region of HCMV glycoprotein gB) (human cytomegalovirus, AD169 strain) (UniProt F5HB53); experiment: ELISA on solid-phased AD1 (referred to in Example 8)
# [3] = target: GST-fused HCMV-AD1 (AD1 region of HCMV glycoprotein gB) (human cytomegalovirus, AD169 strain) (UniProt F5HB53); experiment: ELISA on solid-phased AD1 (referred to in Example 10)
# [4] = target: GST-fused HCMV-AD1 (AD1 region of HCMV glycoprotein gB) (human cytomegalovirus, AD169 strain) (UniProt F5HB53); experiment: ELISA on solid-phased AD1; member taken from the consensus in paragraph 333
Binder,binding [1],binding [2],binding [3],binding [4]
B1,binds,binds,binds,–
B2,–,binds,–,binds
